Laboratory results: PubChem BioAssay AID445 (National Center for Advancing Translational Sciences (NCATS), 2006)
This is one part of the list. The main result of the screen is listed elsewhere. These columns were measured beside it and carry no call. Compounds called inactive in the main read-out are mostly missing here. Potencies come from curve fits of mixed quality, noted in brackets.

assay: IkB Signaling; conditions: ABC-DLBCL IkBa-CBG/CBR dual luciferase ratio (green luciferase fused to IkBa over red control in OCI-Ly3 lymphoma cells), 4 h; measured here: control luc red channel unless noted
How it was run: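 In this assay, an IκBα–CBG68 fusion accumulates when IKK-driven degradation is blocked; native CBR normalizes for cell number. OCI-Ly3 cells were treated 4 h with compound and doxycycline, then green and red light read after Chroma-Glo addition.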

| SMILES | AC50 |
| --- | --- |
| O=C(C1CCCN(S(=O)(=O)c2cccc3nsnc23)C1)N1CCN(c2cccc(Cl)c2)CC1 (stereo not given) | 10 µM [falling, partial curve] |
| CC(=O)c1cccc(NC(=O)c2c(F)c(F)c(F)c(F)c2F)c1 | 3.98 µM [falling, partial curve] |
| Cc1ccc2nc(-c3ccccn3)c(Nc3ccccc3C)n2c1 | 39.8 µM [falling, single point] |
| CC(C)c1ccc2oc(-c3cc(N)ccc3O)nc2c1 | 0.158 µM [falling, full curve] |
| CCc1cccc(C)c1NS(=O)(=O)c1ccc2c(c1)CC(C)N2C(=O)C1CC1 (stereo not given) | 15.8 µM [falling, partial curve] |
| Cc1ccc2c(CC(=O)OC3CCOC3=O)coc2c1 (stereo not given) | 5.01 µM [falling, partial curve] |
| COc1ccc(-c2noc(CSc3nc4ccccc4[nH]3)n2)cc1OC | 2 µM [rising, partial curve] |
| O=C(Nc1cccc(-c2cn3cccnc3n2)c1)c1ccc2c(c1)OCO2 | 20 µM [falling, partial curve] |
| O=S(=O)(Nc1ncnc2sc3c(c12)CCC3)c1ccc(Cl)s1 | 15.8 µM [falling, partial curve] |
| CCN1C(=O)C(O)(c2c[nH]c3ccccc23)c2cc(Br)ccc21 (stereo not given) | 31.6 µM [falling, single point] |
| Cc1cccc(Cn2c(=O)n(-c3ccccc3C)c(=O)c3c2c2cc(C)ccc2n3C)c1 | 10 µM [falling, partial curve] |
| Cc1ccc(CCNC(=O)C2CCN(S(=O)(=O)c3ccc4c(ccn4C)c3)CC2)cc1 | 0.01 µM [falling, full curve, poor fit] |
| Cn1cc(S(=O)(=O)CC(=O)Nc2ccc3c(c2)OCO3)c2ccccc21 | 3.98 µM [falling, partial curve] |
| Cc1ccc(CNC(=O)CSc2nc3ccccc3nc2Cc2ccc(C)cc2)cc1 | 39.8 µM [rising, single point] |
| O=C(/C=C/Nc1cccc(O)c1)c1ccccc1 | 5.01 µM [falling, partial curve] |
| Cc1cccc(-c2nc3c(cnn3-c3ccccc3)c(=O)n2-c2ccc(Cl)cc2)c1 | 3.16 µM [rising, partial curve] |
| COc1ccc(NC(=O)CSc2nc(C)cc(C)c2C(=O)Nc2ccccc2OC)cc1 | 6.31 µM [falling, partial curve] |
| Cc1cc2cc(C(c3nnnn3Cc3ccco3)N3CCc4ccccc4C3)c(=O)[nH]c2cc1C (stereo not given) | 12.6 µM [falling, partial curve] |
| O=C(CCSCc1cccc(Cl)c1)NCCc1ccc(Cl)cc1 | 39.8 µM [falling, partial curve] |
| CCOC(=O)C1CCCN(C(=O)c2cc3c(C)nc4ccccc4c3o2)C1 (stereo not given) | 15.8 µM [falling, single point] |

Sorted by formula weight (low to high): some entries from above.

| SMILES | AC50 |
| --- | --- |
| Cc1ccc2nc(-c3ccccn3)c(Nc3ccccc3C)n2c1 | 39.8 µM [falling, single point] |
| CCOC(=O)C1CCCN(C(=O)c2cc3c(C)nc4ccccc4c3o2)C1 (stereo not given) | 15.8 µM [falling, single point] |
| O=C(CCSCc1cccc(Cl)c1)NCCc1ccc(Cl)cc1 | 39.8 µM [falling, partial curve] |

More compounds.

| SMILES | AC50 |
| --- | --- |
| COc1ccc(-n2c(SCC(=O)NCc3ccc(F)cc3)nc3c([nH]c4ccccc43)c2=O)cc1 | 1 µM [rising, full curve] |
| Cc1oc(-c2ccc(Cl)cc2)nc1Cn1c(=O)cc(C)c2c(C)nn(-c3ccccc3)c21 | 3.98 µM [falling, full curve, poor fit] |
| O=C(NCCc1ccc(Cl)cc1)C1CCN(S(=O)(=O)c2ccc3[nH]ccc3c2)CC1 | 12.6 µM [falling, partial curve] |
| CCOC(=O)c1c(C)oc2nc(C)nc(NCCCN3CCN(c4cc(C)ccc4C)CC3)c12 | 39.8 µM [falling, single point] |
| CC(C)c1ccc(Nc2c(-c3ccccn3)nc3ccccn23)cc1 | 25.1 µM [falling, single point] |
| COc1ccc(-c2nc(CSCC(=O)NCc3ccccc3Cl)c(C)o2)cc1OC | 12.6 µM [falling, partial curve] |
| COC(=O)C1=C(Cn2cnc3ccccc32)NC(=O)NC1c1cc(C)ccc1C (stereo not given) | 7.94 µM [falling, partial curve] |
| Cc1cc(C)c(Cn2c(=O)n(CCCC(=O)NCc3ccc4c(c3)OCO4)c(=O)c3sccc32)c(C)c1 | 39.8 µM [rising, single point] [measured here: IkB-luc green channel] |
| Cn1nnc2c(NCc3c(F)cccc3F)ncnc21 | 7.94 µM [falling, single point] |
| COc1ccc(CCNC(=O)c2cc(=O)c3cc(C)c(C)cc3o2)cc1OC | 31.6 µM [falling, partial curve] |
| CCc1ccc(C(=O)CC2(O)C(=O)N(CCc3ccccc3)c3ccc(Cl)cc32)cc1 (stereo not given) | 12.6 µM [falling, partial curve] |
| Cn1c(=O)c2c(nc(SCC(=O)Nc3ccc(F)c(F)c3)n2Cc2ccccc2F)n(C)c1=O | 0.316 µM [rising, full curve] |
| COc1ccc(CCNC(=O)CCc2c(C)nc3cc(-c4cccc(F)c4)nn3c2C)cc1OC | 12.6 µM [falling, partial curve] |
| CCCOc1ccc(C(=O)N(Cc2ccco2)Cc2ccco2)cc1 | 10 µM [falling, partial curve] |
| Cc1ccccc1OCC(=O)Nc1ccccc1OCc1cc(=O)n2ccccc2n1 | 1.26 µM [falling, partial curve] |
| COc1ccc(C(=O)Nc2cccc(C(=O)OCc3cc(=O)n4c5c(sc4n3)CCCC5)c2)cc1 | 0.2 µM [falling, full curve] |
| FC(F)(F)c1cccc(Nc2c3c(nc4ccc(Cl)cc24)CCC3)c1 | 12.6 µM [falling, partial curve] |
| CC(=O)N(C)c1ccc(OCC(O)CN(Cc2ccco2)S(=O)(=O)c2ccc(C)cc2)cc1 (stereo not given) | 10 µM [falling, partial curve] |
| COc1cc(OC)c(NC(=O)CCc2c(C)nc3c4c(C)cc(C)nc4nn3c2C)cc1Cl | 6.31 µM [falling, single point] |
| COc1cc(NC(=O)C2CCN(S(=O)(=O)c3c(C)noc3/C=C/c3ccccc3F)CC2)cc(OC)c1OC | 2.51 µM [falling, full curve, poor fit] |
